Measurements as given in publication PMC11369598.
Positions count from the first letter of the chain named. Like-named read-outs stand apart in the source and are kept apart here. Results are given in words; binding and its absence hold for the method and conditions named. In cells and extracts the contact can be indirect. Here binding means that the protein was enriched with, or labelled near, the bait; the list need not be complete. For some assays here: No binding means not detected with the bait. Where a sequence is shown, tags or fusion partners need not be part of it. Values belong to the molecule of their own block, whether it stands above or below them.

Chains of the proteins cited; added tags and fusions are not shown.
UniProt Q5T4S7: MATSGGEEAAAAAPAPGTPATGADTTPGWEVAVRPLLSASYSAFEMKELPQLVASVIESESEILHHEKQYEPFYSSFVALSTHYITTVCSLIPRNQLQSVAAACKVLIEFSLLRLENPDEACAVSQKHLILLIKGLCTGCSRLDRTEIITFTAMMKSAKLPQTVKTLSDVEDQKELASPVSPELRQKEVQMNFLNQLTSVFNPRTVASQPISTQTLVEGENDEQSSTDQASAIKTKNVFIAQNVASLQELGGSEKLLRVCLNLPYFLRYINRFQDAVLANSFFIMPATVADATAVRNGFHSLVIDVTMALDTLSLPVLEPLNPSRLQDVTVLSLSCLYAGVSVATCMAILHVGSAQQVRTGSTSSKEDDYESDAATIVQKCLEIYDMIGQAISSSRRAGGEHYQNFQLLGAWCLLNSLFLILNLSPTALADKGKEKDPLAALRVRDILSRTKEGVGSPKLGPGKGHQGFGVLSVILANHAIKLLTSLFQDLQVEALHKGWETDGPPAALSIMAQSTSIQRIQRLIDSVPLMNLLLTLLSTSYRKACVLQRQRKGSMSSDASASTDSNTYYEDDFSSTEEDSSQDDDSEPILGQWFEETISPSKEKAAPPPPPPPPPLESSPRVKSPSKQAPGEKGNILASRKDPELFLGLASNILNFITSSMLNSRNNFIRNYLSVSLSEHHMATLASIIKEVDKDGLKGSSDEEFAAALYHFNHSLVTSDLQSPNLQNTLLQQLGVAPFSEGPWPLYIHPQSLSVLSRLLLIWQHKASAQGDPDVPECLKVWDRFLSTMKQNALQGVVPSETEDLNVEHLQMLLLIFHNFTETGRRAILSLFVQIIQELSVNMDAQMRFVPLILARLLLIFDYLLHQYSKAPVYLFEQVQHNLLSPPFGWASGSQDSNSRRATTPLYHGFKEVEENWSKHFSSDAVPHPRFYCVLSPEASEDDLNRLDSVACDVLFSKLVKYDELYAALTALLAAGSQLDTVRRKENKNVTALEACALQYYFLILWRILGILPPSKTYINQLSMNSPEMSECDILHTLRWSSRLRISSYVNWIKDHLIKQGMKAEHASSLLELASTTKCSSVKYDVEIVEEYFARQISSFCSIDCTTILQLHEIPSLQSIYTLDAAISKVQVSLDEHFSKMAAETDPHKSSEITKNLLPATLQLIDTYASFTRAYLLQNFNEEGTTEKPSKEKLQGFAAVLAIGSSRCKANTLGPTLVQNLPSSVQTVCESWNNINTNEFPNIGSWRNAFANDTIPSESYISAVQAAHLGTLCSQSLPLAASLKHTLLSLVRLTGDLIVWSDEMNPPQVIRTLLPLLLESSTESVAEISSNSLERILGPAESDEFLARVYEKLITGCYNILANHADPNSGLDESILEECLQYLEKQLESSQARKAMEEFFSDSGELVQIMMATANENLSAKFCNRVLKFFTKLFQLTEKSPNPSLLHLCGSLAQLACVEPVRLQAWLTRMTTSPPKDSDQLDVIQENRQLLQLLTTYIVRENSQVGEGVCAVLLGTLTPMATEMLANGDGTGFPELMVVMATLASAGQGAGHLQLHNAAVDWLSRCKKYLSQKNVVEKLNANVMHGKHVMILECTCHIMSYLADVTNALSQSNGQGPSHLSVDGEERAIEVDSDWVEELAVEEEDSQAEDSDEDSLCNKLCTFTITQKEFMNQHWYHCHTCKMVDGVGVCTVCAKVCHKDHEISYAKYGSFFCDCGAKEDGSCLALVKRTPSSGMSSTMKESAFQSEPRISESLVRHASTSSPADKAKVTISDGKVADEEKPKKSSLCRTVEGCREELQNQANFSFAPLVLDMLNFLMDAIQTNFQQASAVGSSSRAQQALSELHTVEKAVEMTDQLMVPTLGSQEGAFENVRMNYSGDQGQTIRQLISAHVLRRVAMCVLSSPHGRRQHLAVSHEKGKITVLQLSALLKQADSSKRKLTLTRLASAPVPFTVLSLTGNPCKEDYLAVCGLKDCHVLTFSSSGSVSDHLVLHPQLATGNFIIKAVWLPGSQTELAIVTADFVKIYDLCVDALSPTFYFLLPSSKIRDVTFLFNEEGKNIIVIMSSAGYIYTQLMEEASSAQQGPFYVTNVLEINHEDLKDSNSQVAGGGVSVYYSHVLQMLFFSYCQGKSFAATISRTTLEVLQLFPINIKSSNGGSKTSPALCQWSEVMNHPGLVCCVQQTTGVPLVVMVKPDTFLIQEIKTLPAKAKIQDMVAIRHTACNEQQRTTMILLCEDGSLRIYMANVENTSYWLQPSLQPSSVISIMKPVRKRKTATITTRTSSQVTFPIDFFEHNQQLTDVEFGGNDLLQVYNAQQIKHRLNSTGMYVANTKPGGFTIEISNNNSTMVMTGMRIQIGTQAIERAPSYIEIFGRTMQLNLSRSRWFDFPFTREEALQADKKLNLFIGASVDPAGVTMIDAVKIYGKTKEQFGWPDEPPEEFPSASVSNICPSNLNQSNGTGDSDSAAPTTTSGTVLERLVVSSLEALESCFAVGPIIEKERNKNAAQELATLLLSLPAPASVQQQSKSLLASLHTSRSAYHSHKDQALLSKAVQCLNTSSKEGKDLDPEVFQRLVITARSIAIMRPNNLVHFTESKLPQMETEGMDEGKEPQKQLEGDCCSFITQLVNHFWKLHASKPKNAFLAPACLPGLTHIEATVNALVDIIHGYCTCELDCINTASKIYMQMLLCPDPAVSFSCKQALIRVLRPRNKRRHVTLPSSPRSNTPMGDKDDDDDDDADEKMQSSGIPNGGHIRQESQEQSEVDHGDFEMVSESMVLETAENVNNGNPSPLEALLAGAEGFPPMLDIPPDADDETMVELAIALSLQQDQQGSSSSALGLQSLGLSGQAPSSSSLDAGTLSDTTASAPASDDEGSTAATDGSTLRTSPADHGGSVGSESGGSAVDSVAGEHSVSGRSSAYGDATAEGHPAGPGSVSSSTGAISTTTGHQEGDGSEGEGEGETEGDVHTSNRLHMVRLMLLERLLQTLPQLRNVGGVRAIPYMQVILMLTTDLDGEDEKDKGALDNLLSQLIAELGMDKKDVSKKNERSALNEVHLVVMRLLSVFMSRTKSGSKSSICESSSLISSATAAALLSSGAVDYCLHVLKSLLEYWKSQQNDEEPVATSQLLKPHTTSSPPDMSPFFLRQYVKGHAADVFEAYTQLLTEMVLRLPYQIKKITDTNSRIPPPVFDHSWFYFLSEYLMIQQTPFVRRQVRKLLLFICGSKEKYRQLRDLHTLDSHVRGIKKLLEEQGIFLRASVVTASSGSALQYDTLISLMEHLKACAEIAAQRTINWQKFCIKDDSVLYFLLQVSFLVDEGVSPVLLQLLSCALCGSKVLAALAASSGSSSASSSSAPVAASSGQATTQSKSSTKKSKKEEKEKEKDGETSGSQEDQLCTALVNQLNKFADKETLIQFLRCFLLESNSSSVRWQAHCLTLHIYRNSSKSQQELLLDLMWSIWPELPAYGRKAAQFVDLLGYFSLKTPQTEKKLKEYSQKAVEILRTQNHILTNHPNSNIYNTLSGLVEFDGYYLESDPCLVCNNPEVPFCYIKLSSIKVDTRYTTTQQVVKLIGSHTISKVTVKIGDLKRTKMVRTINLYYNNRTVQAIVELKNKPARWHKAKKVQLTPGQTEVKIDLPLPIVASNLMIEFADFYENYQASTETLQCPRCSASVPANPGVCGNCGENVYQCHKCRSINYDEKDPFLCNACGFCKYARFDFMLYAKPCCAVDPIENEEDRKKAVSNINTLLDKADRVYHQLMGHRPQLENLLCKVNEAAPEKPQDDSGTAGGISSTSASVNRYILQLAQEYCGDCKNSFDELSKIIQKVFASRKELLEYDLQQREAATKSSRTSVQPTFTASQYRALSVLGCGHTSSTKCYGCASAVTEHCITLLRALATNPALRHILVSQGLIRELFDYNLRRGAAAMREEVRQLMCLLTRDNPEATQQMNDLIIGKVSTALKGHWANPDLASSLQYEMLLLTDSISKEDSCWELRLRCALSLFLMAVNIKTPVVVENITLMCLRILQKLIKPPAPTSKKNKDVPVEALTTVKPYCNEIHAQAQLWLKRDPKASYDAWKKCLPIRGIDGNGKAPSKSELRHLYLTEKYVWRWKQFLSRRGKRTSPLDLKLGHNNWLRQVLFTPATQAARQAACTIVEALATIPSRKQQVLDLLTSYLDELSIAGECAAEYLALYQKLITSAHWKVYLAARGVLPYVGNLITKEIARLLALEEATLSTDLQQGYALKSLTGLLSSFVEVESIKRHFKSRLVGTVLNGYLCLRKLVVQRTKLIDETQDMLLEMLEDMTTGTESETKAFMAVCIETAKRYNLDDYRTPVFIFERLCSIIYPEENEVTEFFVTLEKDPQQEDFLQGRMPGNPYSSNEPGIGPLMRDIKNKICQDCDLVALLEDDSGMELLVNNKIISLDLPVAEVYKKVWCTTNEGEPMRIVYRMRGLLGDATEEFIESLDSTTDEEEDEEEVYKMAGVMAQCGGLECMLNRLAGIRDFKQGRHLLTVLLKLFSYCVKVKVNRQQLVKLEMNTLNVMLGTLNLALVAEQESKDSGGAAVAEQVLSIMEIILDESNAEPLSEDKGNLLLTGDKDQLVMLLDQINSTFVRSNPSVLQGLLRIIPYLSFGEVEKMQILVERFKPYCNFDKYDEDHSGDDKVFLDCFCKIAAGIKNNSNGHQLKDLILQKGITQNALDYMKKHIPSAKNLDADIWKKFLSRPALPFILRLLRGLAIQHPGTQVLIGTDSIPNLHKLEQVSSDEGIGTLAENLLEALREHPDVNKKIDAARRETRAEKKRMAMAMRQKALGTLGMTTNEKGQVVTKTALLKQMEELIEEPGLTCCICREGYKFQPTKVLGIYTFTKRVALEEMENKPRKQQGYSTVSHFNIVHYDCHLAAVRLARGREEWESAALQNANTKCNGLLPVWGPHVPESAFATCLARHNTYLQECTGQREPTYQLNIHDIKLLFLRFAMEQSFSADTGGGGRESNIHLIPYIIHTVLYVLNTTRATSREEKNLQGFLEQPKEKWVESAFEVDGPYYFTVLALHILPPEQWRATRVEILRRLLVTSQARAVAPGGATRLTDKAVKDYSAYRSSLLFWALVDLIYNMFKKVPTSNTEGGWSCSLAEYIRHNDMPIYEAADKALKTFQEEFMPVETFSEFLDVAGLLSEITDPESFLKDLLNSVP
UniProt Q9UHP3: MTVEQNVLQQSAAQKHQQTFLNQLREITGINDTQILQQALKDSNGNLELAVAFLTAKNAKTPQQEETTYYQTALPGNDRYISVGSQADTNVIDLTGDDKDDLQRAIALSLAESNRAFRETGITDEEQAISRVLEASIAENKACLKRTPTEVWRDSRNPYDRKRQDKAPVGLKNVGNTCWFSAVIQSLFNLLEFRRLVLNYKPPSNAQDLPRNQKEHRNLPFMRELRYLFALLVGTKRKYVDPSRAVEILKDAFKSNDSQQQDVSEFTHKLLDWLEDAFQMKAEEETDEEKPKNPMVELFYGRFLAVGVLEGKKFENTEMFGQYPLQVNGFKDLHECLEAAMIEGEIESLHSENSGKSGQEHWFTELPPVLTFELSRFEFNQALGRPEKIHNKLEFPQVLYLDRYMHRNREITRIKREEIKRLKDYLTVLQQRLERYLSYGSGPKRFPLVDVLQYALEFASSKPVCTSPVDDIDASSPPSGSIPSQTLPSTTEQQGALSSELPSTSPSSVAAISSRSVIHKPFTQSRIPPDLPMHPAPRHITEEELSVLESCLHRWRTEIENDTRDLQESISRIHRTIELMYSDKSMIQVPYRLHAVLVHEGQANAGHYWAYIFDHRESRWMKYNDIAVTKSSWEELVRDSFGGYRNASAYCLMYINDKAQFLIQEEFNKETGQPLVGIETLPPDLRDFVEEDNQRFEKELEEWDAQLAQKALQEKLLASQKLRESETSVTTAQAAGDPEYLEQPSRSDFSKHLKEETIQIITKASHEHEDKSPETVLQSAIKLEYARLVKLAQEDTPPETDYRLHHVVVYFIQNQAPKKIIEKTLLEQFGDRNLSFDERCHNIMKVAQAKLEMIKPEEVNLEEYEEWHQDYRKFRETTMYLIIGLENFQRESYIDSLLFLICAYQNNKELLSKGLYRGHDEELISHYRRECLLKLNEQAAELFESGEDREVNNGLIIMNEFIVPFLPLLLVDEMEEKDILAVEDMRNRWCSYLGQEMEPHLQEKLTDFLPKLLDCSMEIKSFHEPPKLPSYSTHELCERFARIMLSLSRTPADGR

Tests used:
[1] = biological target: T1, KLHL6 wild type fused to C-terminal BioID2 (human) (UniProt Q8WZ60); assay: proximity labelling; KLHL6 baits with C-terminal BioID2 stably expressed in SuDHL5, no added biotin; lysis with 0.1% SDS; biotinylated proteins purified on Strep-Tactin Sepharose; mass spectrometry; BioID2-tagged EmGFP controls
T1 sequence: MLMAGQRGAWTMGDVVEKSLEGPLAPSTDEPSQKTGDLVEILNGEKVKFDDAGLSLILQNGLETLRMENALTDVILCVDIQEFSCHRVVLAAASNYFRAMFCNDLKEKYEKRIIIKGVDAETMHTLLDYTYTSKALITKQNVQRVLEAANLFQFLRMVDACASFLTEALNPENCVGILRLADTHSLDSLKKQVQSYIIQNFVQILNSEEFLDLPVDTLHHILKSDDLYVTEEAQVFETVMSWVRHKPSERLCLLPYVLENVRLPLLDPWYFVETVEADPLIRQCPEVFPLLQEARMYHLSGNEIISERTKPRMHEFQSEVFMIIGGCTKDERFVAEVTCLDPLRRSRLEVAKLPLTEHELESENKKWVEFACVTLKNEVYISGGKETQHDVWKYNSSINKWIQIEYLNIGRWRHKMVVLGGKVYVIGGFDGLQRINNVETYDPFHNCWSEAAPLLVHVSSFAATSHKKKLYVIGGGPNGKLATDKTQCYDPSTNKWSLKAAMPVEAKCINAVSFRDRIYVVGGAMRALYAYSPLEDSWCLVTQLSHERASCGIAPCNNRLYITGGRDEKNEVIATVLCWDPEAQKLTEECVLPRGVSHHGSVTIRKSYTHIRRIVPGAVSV

[2] = biological target: T2, KLHL6 L65P fused to C-terminal BioID2 (human) (UniProt Q8WZ60); assay: as above
T2 sequence: T1 sequence with L65P

[3] = biological target: T3, KLHL6 wild type, C-terminal Strep-HA tag (KLHL6-strHA) (human) (UniProt Q8WZ60); assay: affinity purification with mass spectrometry; C-terminally Strep-HA-tagged KLHL6 baits stably expressed in SuDHL5; lysis in 0.5% IGEPAL, 50 mmol/L HEPES pH 8.0, 150 mmol/L NaCl, 5 mmol/L EDTA; one-step purification on Strep-Tactin Sepharose; EmGFP controls; SAINT and DESeq2; also done 60 seconds after BCR cross-linking with anti-human IgM F(ab')2 or control goat IgG
T3 sequence: T1 sequence

[4] = biological target: T3, KLHL6 wild type, C-terminal Strep-HA tag (KLHL6-strHA) (human); assay: as above; remark: listed apart in the source
[5] = biological target: T4, KLHL6 L65P, C-terminal Strep-HA tag (human) (UniProt Q8WZ60); assay: as above
T4 sequence: T1 sequence with L65P

[6] = biological target: T5, KLHL6 E568K, C-terminal Strep-HA tag (human) (UniProt Q8WZ60); assay: as above
T5 sequence: T1 sequence with E568K

[7] = biological target: T6, KLHL6 L90F, C-terminal Strep-HA tag (human) (UniProt Q8WZ60); assay: as above
T6 sequence: T1 sequence with L90F

binding [1]: binds | binding [2]: binds weakly | binding [3]: binds
Molecule: E3 ubiquitin ligase UBR4 (from UniProt Q5T4S7 1-5183)

binding [1]: binds | binding [2]: binds weakly
Molecule: deubiquitinating enzyme 25 (USP25) (from UniProt Q9UHP3 1-1055)

binding [4]: binds | binding [5]: no binding | binding [6]: binds | binding [7]: no binding
B1: KLHL26 (protein, UniProt Q53HC5 1-615)
chain: MAESGGSSGGAGGGGAFGAGPGPERPNSTADKNGALKCTFSAPSHSTSLLQGLATLRAQGQLLDVVLTINREAFPAHKVVLAACSDYFRAMFTGGMREASQDVIELKGVSARGLRHIIDFAYSAEVTLDLDCVQDVLGAAVFLQMLPVVELCEEFLKAAMSVETCLNIGQMATTFSLASLRESVDAFTFRHFLQIAEEEDFLRLPLERLVFFLQSNRLQSCAEIDLFRAAVRWLQHDPARRPRASHVLCHIRFPLMQSSELVDSVQTLDIMVEDVLCRQYLLEAFNYQVLPFRQHEMQSPRTAVRSDVPSLVTFGGTPYTDSDRSVSSKVYQLPEPGARHFRELTEMEVGCSHTCVAVLDNFVYVAGGQHLQYRSGEGAVDACYRYDPHLNRWLRLQAMQESRIQFQLNVLCGMVYATGGRNRAGSLASVERYCPRRNEWGYACSLKRRTWGHAGAASGGRLYISGGYGISVEDKKALHCYDPVADQWEFKAPMSEPRVLHAMVGAGGRIYALGGRMDHVDRCFDVLAVEYYVPETDQWTSVSPMRAGQSEAGCCLLERKIYIVGGYNWRLNNVTGIVQVYNTDTDEWERDLHFPESFAGIACAPVLLPRAGTRR

binding [5]: binds | binding [7]: binds
B2: endogenous KLHL6 (protein, UniProt Q8WZ60 1-621)
chain: T1 sequence
